# Source: PubChem BioAssay AID540276 (National Center for Advancing Translational Sciences (NCATS), 2011)
# Among all 300,000 compounds or so, about 5,400 (1.8%) were called active. The shares of active, inactive and inconclusive entries below differ from those in the screen. Calls follow the shape of the full dose curve; tested in HEK293 cells. A potency beside an inconclusive call is a rough fit, not a confirmed value.
# Experiment: qHTS for inhibitors of binding or entry into cells for Marburg Virus
# Settings: Marburg virus pseudotyped entry inhibition, cell reporter; series mostly up to 37.8 µM
# Potency is read from the fitted curve at half-maximal effect.
row,Structure (SMILES),Potency
1,CC(=O)c1ccc(N2CCN(C(=O)C3CCC3)CC2)cc1,inactive
2,O=C1c2ccccc2C(=O)N1CC(O)COc1ccc(Cl)cc1 (stereo unspecified),"inconclusive: 3.55 µM [activator, partial curve, poor fit]"
3,COc1ccccc1NC(=O)CSc1nnc(COc2ccc(Cl)cc2)o1,"inconclusive: 1.12 µM [activator, full curve, poor fit]"
4,COCCSc1ncnc2c1oc1nc3c(cc12)COC(C)(C)C3,inactive
5,Cc1c(/C=N/NC(=O)c2ccc(O)cc2)c2ccccn2c1C(=O)c1ccc(F)cc1,"inconclusive: 22.4 µM [inhibitor, single point]"
6,Cc1ccc(NC(=O)CN(C)C(=O)CSc2nnc(C)s2)cc1,inactive
7,Cc1ccc(CN(C(=O)COc2ccc(Cl)cc2Cl)C2CCS(=O)(=O)C2)o1 (stereo unspecified),inactive
8,Cc1ccc(S(=O)(=O)Nc2cccc(C(=O)NCCCN3CCCC3=O)c2)cc1F,inactive
9,CCN1C=C(Cc2ccc(F)cc2)C2=C(C1)C(c1ccc(F)cc1)C(C#N)=C(N)O2 (stereo unspecified),"inconclusive: 35.5 µM [inhibitor, single point]"
10,O=C(CC(=O)c1cccnc1)c1ccccc1,"inconclusive: 0.794 µM [activator, full curve, poor fit]"
11,O=C(N/N=C/c1ccc[nH]1)c1ccc2c(c1)OCO2,inactive
12,Cc1ccc(C(=O)NC(C)(COc2nonc2C)COc2nonc2C)cc1,inactive
13,O=C(c1cccc(S(=O)(=O)N2CCc3ccccc32)c1)N1CCN(CCO)CC1,"inconclusive: 2.82 µM [inhibitor, partial curve, poor fit]"
14,O=C(CCC(=O)N1CCN(S(=O)(=O)c2ccc(Cl)cc2)CC1)Nc1ccc2ccccc2c1,"inconclusive: 0.562 µM [inhibitor, full curve, poor fit]"
15,COc1ccc(-c2ccc(NC(=O)c3ccc(Br)o3)cc2)nn1,"inconclusive: 5.62 µM [inhibitor, full curve, poor fit]"
16,Nc1c(C(=O)Nc2ccc(F)cc2)sc(=S)n1-c1ccccc1F,"inconclusive: 35.5 µM [inhibitor, single point]"
17,O=c1c2oc3ccccc3c2[nH]c(=S)n1-c1ccc(F)cc1,inactive
18,Cc1cc(C)c(NC(=O)c2ccccc2CCc2ccccc2)c(C)c1,"inconclusive: 10.3 µM [inhibitor, single point]"
19,COCC1CCN(Cc2nc(-c3cccs3)no2)C1 (stereo unspecified),inactive
20,COc1ccc(N2C(=O)CC(n3c(CCCCO)nc4ccccc43)C2=O)cc1 (stereo unspecified),inactive
21,CC(=O)Nc1ccc(NC(=O)CSc2nnc(-c3cccs3)n2N)cc1,inactive
22,O=C(Nc1ccnn1C1CCN(C(=O)Cc2cccc(Cl)c2)CC1)C1CC1,inactive
23,O=C(NC1CCS(=O)(=O)C1)/C(=C\c1ccccc1)NC(=O)c1ccccc1 (stereo unspecified),"inconclusive: 0.794 µM [inhibitor, partial curve, poor fit]"
24,CCCCN1C(C)=CC(=C2C(=O)c3ccccc3C2=O)C=C1C,"inconclusive: 4.47 µM [inhibitor, single point]"

# In the list so far, 13 have a carbonyl joined to an NH by a bond outside any ring.
row,Structure (SMILES),Potency
3,COc1ccccc1NC(=O)CSc1nnc(COc2ccc(Cl)cc2)o1,"inconclusive: 1.12 µM [activator, full curve, poor fit]"
5,Cc1c(/C=N/NC(=O)c2ccc(O)cc2)c2ccccn2c1C(=O)c1ccc(F)cc1,"inconclusive: 22.4 µM [inhibitor, single point]"
6,Cc1ccc(NC(=O)CN(C)C(=O)CSc2nnc(C)s2)cc1,inactive
8,Cc1ccc(S(=O)(=O)Nc2cccc(C(=O)NCCCN3CCCC3=O)c2)cc1F,inactive
11,O=C(N/N=C/c1ccc[nH]1)c1ccc2c(c1)OCO2,inactive
12,Cc1ccc(C(=O)NC(C)(COc2nonc2C)COc2nonc2C)cc1,inactive
14,O=C(CCC(=O)N1CCN(S(=O)(=O)c2ccc(Cl)cc2)CC1)Nc1ccc2ccccc2c1,"inconclusive: 0.562 µM [inhibitor, full curve, poor fit]"
15,COc1ccc(-c2ccc(NC(=O)c3ccc(Br)o3)cc2)nn1,"inconclusive: 5.62 µM [inhibitor, full curve, poor fit]"
16,Nc1c(C(=O)Nc2ccc(F)cc2)sc(=S)n1-c1ccccc1F,"inconclusive: 35.5 µM [inhibitor, single point]"
18,Cc1cc(C)c(NC(=O)c2ccccc2CCc2ccccc2)c(C)c1,"inconclusive: 10.3 µM [inhibitor, single point]"
21,CC(=O)Nc1ccc(NC(=O)CSc2nnc(-c3cccs3)n2N)cc1,inactive
22,O=C(Nc1ccnn1C1CCN(C(=O)Cc2cccc(Cl)c2)CC1)C1CC1,inactive
23,O=C(NC1CCS(=O)(=O)C1)/C(=C\c1ccccc1)NC(=O)c1ccccc1 (stereo unspecified),"inconclusive: 0.794 µM [inhibitor, partial curve, poor fit]"

# Additional entries

row,Structure (SMILES),Potency
1,Cc1oc(-c2cc3c(cc2Cl)OCO3)nc1CN1CCCC1c1ccc(F)cc1 (stereo unspecified),"inconclusive: 10 µM [inhibitor, single point]"
2,CCC(=O)c1ccc(OCC(=O)Nc2ccc3c(c2)OCCO3)cc1,"inconclusive: 22.4 µM [inhibitor, partial curve, poor fit]"
3,COc1ccc(-c2nnc3sc(-c4ccco4)nn23)cc1OC,inactive
4,CC1=NCCN1S(=O)(=O)c1cccc([N+](=O)[O-])c1,"inconclusive: 29.1 µM [inhibitor, partial curve, poor fit]"
5,COc1nc(NC(=O)c2ccc(F)cc2)nc(OC)c1-c1ccccc1,"inconclusive: 7.08 µM [inhibitor, partial curve, poor fit]"
6,CCOC(=O)c1c(C)nc(-c2ccccc2)nc1NC(C)=O,"inconclusive: 35.5 µM [activator, single point]"
7,C[C@H](NS(=O)(=O)c1ccccc1)C(=O)N1CCN(C(c2ccccc2)c2ccccc2)CC1,"inconclusive: 35.5 µM [inhibitor, single point]"
8,CCC(C)c1ccc(C(C)NC(=S)NCc2ccc(F)cc2)cc1 (stereo unspecified),"inconclusive: 35.5 µM [inhibitor, single point]"
9,CCOc1cc(C(=O)Nc2ccccc2N2CCOCC2)ccc1OCC(=O)N1CCCCC1,"inconclusive: 5.62 µM [inhibitor, full curve, poor fit]"
10,CCOC(=O)c1cccc(NC(=O)C(Cc2ccccc2)NS(=O)(=O)c2cccc3nsnc23)c1 (stereo unspecified),"inconclusive: 8.91 µM [inhibitor, partial curve, poor fit]"
11,COC(=O)c1ccc(CSc2nc3ccccc3c(=O)n2-c2cccc(OC)c2)o1,inactive
12,O=C(N/N=C/c1ccco1)c1cccc(N2CCCC2=O)c1,inactive
13,O=C(CN1C(=O)CCC1=O)c1ccc(-c2ccccc2)cc1,"inconclusive: 5.62 µM [activator, full curve, poor fit]"
14,COc1cc2nc(Nc3ccc(F)cc3)nc(N)c2cc1OC,"inconclusive: 35.5 µM [inhibitor, single point]"
15,CCCOc1ccc(N2C(=O)C[C@@H](N(Cc3ccc(S(N)(=O)=O)cc3)C(=O)CC)C2=O)cc1,inactive
16,CCc1ccccc1OCCSc1nnc(-c2cc(OC)c(OC)c(OC)c2)o1,inactive
17,COC(=O)c1ccc(Cn2nnc3sc4c(c3c2=O)CCCC4)cc1,"inconclusive: 8.91 µM [activator, partial curve, poor fit]"
18,Cc1cc(OCC(=O)NC(C)c2ccccc2)ccc1[N+](=O)[O-] (stereo unspecified),"inconclusive: 17.8 µM [inhibitor, single point]"
19,COc1cc(CNCCc2ccc(F)cc2)ccc1OCc1ccc(Cl)nc1,"inconclusive: 35.5 µM [inhibitor, single point]"
20,CCOC(=O)c1[nH]c(C)c(C(=O)Nc2ccc(Cl)cc2)c1C,inactive
21,CC(=O)N1c2ccc(Cl)cc2C2C=CCC2C1c1cccc2ccccc12 (stereo unspecified),"inconclusive: 11.2 µM [inhibitor, partial curve, poor fit]"
22,O=C1C2C3C=CC(C3)C2C(=O)N1c1ncc([N+](=O)[O-])s1 (stereo unspecified),inactive
23,CC(=O)C(C)Oc1ccc2c3c(c(=O)oc2c1)CCCCC3 (stereo unspecified),inactive
24,Cc1ccc(C(=O)NC(NC(=S)Nc2ccc(S(N)(=O)=O)cc2)C(Cl)(Cl)Cl)cc1 (stereo unspecified),inactive

row,Structure (SMILES),Potency
1,CN1CCN(C(=O)C2CCC(C)(C(=O)O)C2(C)C)CC1 (stereo unspecified),inactive
2,CCOC(=O)C(O)(c1cn(C)c2ccccc12)C(F)(F)F (stereo unspecified),"inconclusive: 35.5 µM [inhibitor, single point]"
3,COCCN(CCOC)Cc1c(O)ccc2c1O/C(=C\c1ccco1)C2=O,inactive
4,CCc1ccccc1NC(=O)C(C)n1nc(-c2ccc(C)c(C)c2)ccc1=O (stereo unspecified),"inconclusive: 3.16 µM [activator, partial curve, poor fit]"
5,CCOC(=O)C1CCN(c2nc3ccccc3nc2C(C#N)C(=O)OC(C)COC)CC1 (stereo unspecified),"inconclusive: 22.4 µM [activator, single point]"
6,O=C(C1CCN(S(=O)(=O)Cc2ccccc2)CC1)N1CCN(c2ccccc2F)CC1,inactive
7,COc1cccc(N2CCN(c3c4c(nc5ncnn35)CCC4)CC2)c1,inactive
8,COc1ccc(NC(=O)Cc2ccsc2)cc1S(=O)(=O)N1CCCCC1,inactive
9,COC(=O)c1c(NC(=O)CN2CCC3(O)CCCCC3C2c2cc(OC)ccc2OC)sc(C)c1C (stereo unspecified),active: 14.6 µM
10,CC(C)(C)c1ccccc1OCCCCCNCCO,"inconclusive: 6.51 µM [inhibitor, partial curve, poor fit]"
11,Cc1ccc(C)c(Nc2nc3nonc3nc2Nc2cccc(C)c2C)c1,"inconclusive: 17.8 µM [inhibitor, partial curve, poor fit]"
12,COc1ccc(-c2csc(N(CCCN(C)C)C(=O)c3ccccc3C)n2)cc1,"inconclusive: 25.1 µM [inhibitor, partial curve, poor fit]"
13,CC1=NOC(=O)/C1=C\c1ccc(-c2cc(Cl)ccc2Cl)o1,inactive
14,CCN(CC)c1cc(C)c2cc(NC(=O)c3ccc(Br)o3)ccc2n1,"inconclusive: 20.6 µM [inhibitor, partial curve, poor fit]"
15,CN1CCN(S(=O)(=O)c2ccc(NC(=O)c3cccc(F)c3)cc2)CC1,inactive
16,c1c2c(cc3sc(N4CCCCC4)nc13)OCO2,"inconclusive: 3.98 µM [inhibitor, full curve]"
17,CC1=CC(C)(C)N2C(=O)C3(N=C(N)NC(Nc4ccccc4)=N3)c3cc(C)cc1c32 (stereo unspecified),"inconclusive: 12.6 µM [inhibitor, partial curve, poor fit]"
18,O=C(CCc1ccc(Oc2cc([N+](=O)[O-])cc([N+](=O)[O-])c2)cc1)Nc1cccc(Cl)c1,"inconclusive: 14.1 µM [inhibitor, single point]"
19,Cc1ccc(N=Cc2nc(-c3ccc(C)cc3)oc2O)cc1,inactive
20,O=C(O)CCc1ccc(S(=O)(=O)Nc2ccc(OCc3ccccc3)cc2)cc1,"inconclusive: 6.31 µM [activator, partial curve, poor fit]"
21,CN1CCCC(OC(=O)c2ccc(Cl)cc2)C1 (stereo unspecified),"inconclusive: 35.5 µM [activator, single point]"
22,COCCCNC(=O)COc1ccc(Br)cc1Cl,"inconclusive: 2.82 µM [activator, partial curve, poor fit]"
23,COc1ccc(-c2cc(C(=O)Nc3ccc(F)cc3F)no2)cc1,inactive

# Among those listed so far, 2 have a cyano group:
row,Structure (SMILES),Potency
9,CCN1C=C(Cc2ccc(F)cc2)C2=C(C1)C(c1ccc(F)cc1)C(C#N)=C(N)O2 (stereo unspecified),"inconclusive: 35.5 µM [inhibitor, single point]"
5,CCOC(=O)C1CCN(c2nc3ccccc3nc2C(C#N)C(=O)OC(C)COC)CC1 (stereo unspecified),"inconclusive: 22.4 µM [activator, single point]"
